{"sequences": {"note": "Protein sequences, listed by entry. Tags and fused reporters are not part of them.", "UniProt Q2TAZ0": "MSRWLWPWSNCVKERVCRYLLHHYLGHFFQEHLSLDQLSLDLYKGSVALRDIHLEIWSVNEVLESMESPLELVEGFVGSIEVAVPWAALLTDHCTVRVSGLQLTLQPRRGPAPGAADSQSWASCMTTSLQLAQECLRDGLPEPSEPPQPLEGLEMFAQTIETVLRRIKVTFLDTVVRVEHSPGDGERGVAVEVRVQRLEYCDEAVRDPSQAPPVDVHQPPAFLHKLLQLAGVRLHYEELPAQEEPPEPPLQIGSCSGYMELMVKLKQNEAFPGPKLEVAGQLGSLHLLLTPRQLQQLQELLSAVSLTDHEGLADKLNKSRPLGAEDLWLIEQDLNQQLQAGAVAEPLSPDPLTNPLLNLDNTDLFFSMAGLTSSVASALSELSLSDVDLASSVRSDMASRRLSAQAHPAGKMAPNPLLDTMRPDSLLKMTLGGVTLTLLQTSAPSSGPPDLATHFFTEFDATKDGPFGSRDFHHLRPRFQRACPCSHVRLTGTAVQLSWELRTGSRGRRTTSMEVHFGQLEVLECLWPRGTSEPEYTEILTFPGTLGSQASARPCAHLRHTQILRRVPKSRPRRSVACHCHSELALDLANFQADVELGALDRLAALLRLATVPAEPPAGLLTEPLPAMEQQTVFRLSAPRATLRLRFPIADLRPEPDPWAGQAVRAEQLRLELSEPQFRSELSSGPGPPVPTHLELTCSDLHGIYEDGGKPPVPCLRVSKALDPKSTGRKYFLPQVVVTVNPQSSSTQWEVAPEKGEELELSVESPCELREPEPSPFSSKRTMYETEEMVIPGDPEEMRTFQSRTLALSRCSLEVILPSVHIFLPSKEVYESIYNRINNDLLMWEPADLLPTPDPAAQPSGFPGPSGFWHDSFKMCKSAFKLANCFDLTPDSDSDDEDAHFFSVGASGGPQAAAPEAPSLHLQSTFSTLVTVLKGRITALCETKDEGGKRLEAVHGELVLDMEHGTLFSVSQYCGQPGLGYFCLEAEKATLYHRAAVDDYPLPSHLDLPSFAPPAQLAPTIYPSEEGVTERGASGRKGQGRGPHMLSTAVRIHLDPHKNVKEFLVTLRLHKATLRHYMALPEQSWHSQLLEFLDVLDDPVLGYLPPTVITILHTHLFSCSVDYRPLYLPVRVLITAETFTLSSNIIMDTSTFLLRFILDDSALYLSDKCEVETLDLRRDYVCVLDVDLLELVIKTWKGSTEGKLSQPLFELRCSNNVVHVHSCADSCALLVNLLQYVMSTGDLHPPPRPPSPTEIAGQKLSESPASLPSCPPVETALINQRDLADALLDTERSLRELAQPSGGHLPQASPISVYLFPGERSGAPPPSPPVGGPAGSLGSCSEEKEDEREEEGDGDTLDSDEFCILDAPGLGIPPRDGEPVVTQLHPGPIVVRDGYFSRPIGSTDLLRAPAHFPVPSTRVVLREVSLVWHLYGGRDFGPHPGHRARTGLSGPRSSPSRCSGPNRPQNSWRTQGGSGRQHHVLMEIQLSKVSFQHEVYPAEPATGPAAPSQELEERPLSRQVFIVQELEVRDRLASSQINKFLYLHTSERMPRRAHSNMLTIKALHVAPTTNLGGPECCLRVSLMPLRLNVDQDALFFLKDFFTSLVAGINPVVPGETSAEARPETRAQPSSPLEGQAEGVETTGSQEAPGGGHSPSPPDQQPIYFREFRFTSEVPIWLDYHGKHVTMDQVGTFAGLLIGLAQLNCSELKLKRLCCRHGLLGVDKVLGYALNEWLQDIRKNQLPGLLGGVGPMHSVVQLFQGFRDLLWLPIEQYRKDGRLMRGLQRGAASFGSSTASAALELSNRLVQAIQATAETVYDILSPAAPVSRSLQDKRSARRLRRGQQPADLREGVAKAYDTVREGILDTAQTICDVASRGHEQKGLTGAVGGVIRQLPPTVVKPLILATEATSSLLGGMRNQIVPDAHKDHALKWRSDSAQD", "UniProt Q9Y484": "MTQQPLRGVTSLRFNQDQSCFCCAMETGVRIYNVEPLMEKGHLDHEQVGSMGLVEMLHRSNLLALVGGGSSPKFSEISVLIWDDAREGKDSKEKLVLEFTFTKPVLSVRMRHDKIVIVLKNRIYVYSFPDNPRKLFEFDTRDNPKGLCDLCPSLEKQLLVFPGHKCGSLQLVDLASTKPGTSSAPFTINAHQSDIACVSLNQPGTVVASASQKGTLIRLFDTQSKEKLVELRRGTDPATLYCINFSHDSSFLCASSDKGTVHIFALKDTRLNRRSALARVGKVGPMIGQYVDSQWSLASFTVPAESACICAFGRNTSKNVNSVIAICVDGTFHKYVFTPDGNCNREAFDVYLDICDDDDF"}, "source": "paper PMC11018839", "about": "“ANKFY1 bridges ATG2A-mediated lipid transfer from endosomes to phagophores” (Cell Discovery, 2024)", "key": {"[1]": {"target": "ZZ-TEV-Flag-tagged ATG2A (bait of the tandem affinity purification) (human) (UniProt Q2TAZ0)", "assay": "affinity purification with mass spectrometry; tandem affinity purification of ZZ-TEV-Flag-ATG2A from cells that stably express it at endogenous level (1.5 ng/mL doxycycline); 20 mM Tris-HCl pH 7.5, 150 mM NaCl, 0.5% NP-40, 1 mM EDTA; eluate run on SDS-PAGE and analysed by MS; under autophagy stimulation according to the discussion"}, "[2]": {"target": "ZZ-TEV-Flag-tagged ATG2A (bait of the tandem affinity purification) (human) (UniProt Q2TAZ0)", "assay": "affinity purification with mass spectrometry; tandem affinity purification of ZZ-TEV-Flag-ATG2A from cells that stably express it at endogenous level (1.5 ng/mL doxycycline); 20 mM Tris-HCl pH 7.5, 150 mM NaCl, 0.5% NP-40, 1 mM EDTA; eluate run on SDS-PAGE and analysed by MS; under autophagy stimulation according to the discussion", "remark": "listed apart in the source"}}, "note": "Where two headings read alike, the source gives them in different places. No constants are given. Whether binding was seen depends on the method and setting. Binding seen in cells or lysates may run through a third protein. A yes stands for co-enrichment or nearness to the bait. Other partners may have been found.", "data": [{"molecule": "WIPI4, endogenous (from UniProt Q9Y484 1-360)", "values": [{"measurement": "binding", "setting": "[1]", "value": "binds"}]}, {"molecule": "purified Flag-ANKFY1 full-length protein (natural protein, human, UniProt Q9P2R3 1-1169, looked up, ANKFY1, human, full length (ANKFY1-FL), N-terminal Flag tag, pCDNA4-TO vector; also called ANKFY1-FL; ANKFY1-Flag; source: 293S cells, purified (anti-Flag M2 resin, eluted with 3x Flag peptide); not shown: Flag, N-terminal, kept) MAEEEVAKLEKHLMLLRQEYVKLQKKLAETEKRCALLAAQANKESSSESFISRLLAIVADLYEQEQYSDLKIKVGDRHISAHKFVLAARSDSWSLANLSSTKELDLSDANPEVTMTMLRWIYTDELEFREDDVFLTELMKLANRFQLQLLRERCEKGVMSLVNVRNCIRFYQTAEELNASTLMNYCAEIIASHWDDLRKEDFSSMSAQLLYKMIKSKTEYPLHKAIKVEREDVVFLYLIEMDSQLPGKLNEADHNGDLALDLALSRRLESIATTLVSHKADVDMVDKSGWSLLHKGIQRGDLFAATFLIKNGAFVNAATLGAQETPLHLVALYSSKKHSADVMSEMAQIAEALLQAGANPNMQDSKGRTPLHVSIMAGNEYVFSQLLQCKQLDLELKDHEGSTALWLAVQHITVSSDQSVNPFEDVPVVNGTSFDENSFAARLIQRGSHTDAPDTATGNCLLQRAAGAGNEAAALFLATNGAHVNHRNKWGETPLHTACRHGLANLTAELLQQGANPNLQTEEALPLPKEAASLTSLADSVHLQTPLHMAIAYNHPDVVSVILEQKANALHATNNLQIIPDFSLKDSRDQTVLGLALWTGMHTIAAQLLGSGAAINDTMSDGQTLLHMAIQRQDSKSALFLLEHQADINVRTQDGETALQLAIRNQLPLVVDAICTRGADMSVPDEKGNPPLWLALANNLEDIASTLVRHGCDATCWGPGPGGCLQTLLHRAIDENNEPTACFLIRSGCDVNSPRQPGANGEGEEEARDGQTPLHLAASWGLEETVQCLLEFGANVNAQDAEGRTPIHVAISSQHGVIIQLLVSHPDIHLNVRDRQGLTPFACAMTFKNNKSAEAILKRESGAAEQVDNKGRNFLHVAVQNSDIESVLFLISVHANVNSRVQDASKLTPLHLAVQAGSEIIVRNLLLAGAKVNELTKHRQTALHLAAQQDLPTICSVLLENGVDFAAVDENGNNALHLAVMHGRLNNIRVLLTECTVDAEAFNLRGQSPLHILGQYGKENAAAIFDLFLECMPGYPLDKPDADGSTVLLLAYMKGNANLCRAIVRSGARLGVNNNQGVNIFNYQVATKQLLFRLLDMLSKEPPWCDGSYCYECTARFGVTTRKHHCRHCGRLLCHKCSTKEIPIIKFDLNKPVRVCNICFDVLTLGGVS", "values": [{"measurement": "binding", "setting": "[2]", "value": "binds"}]}]}
